{"source": "patent EP0642343B1", "about": "“Acridine carboxamides for the treatment of cancer” (XENOVA LIMITED, priority 1992, dated 1993)", "origin": "cited, not measured here", "system": "subcutaneous melanoma xenografts growing in nude mice", "conditions": "summary given by Berger et al.; cited from earlier work", "note": "At least one structure is not confirmed: it was looked up by name or label, or the drawing left a doubt."}
{"smiles": "CN(C)/N=N/c1[nH]cnc1C(N)=O", "note": "[Dacarbazine]", "values": [{"measurement": "Percentage of xenografts responding", "result": 17, "unit": "%"}]}
